Data as given in PubChem BioAssay AID743121 (NCATS, 2013)

Aim: 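Genes whose silencing strengthens cell killing by camptothecin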 (primary screen)
Cells: MDA-MB-231 cells, a human breast cancer line
Knock-down reagent: single siRNA against human genes, 20 nM siRNA (0.8 pmol per well)
Timing: 120 h (drug added 48 h after transfection, read 72 h later)
Treatment: camptothecin 20 nM (about EC30) for 72 h; vehicle 0.1% DMSO in parallel plates
Detection: 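CellTiter-Glo ATP signal, scaled to control siRNA as percent viability; sensitisation given as log2 of untreated divided by camptothecin-treated viability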
Scale: log2 vehicle/camptothecin viability: higher = stronger sensitisation to camptothecin
Hit rule: 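Active genes have an RSA gene-level p-value below 0.001, computed from the ratios of their separate siRNAs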
Here is an unselected part of about 26,000 reagents tested. 167 of all reagents (0.63%) were called active. 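Calls are per gene from RSA p-values that are not deposited; an individual active-marked siRNA can sensitise only weakly.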 A number with no mark means an inactive call. Reagents against one gene are numbered here. Not all columns of the deposit are shown.

GHRH #1
- log2 vehicle/camptothecin viability: -0.0859

GHRH #2
- log2 vehicle/camptothecin viability: -0.223

GHRH #3
- log2 vehicle/camptothecin viability: 0.0279

GHRH #4
- log2 vehicle/camptothecin viability: -0.0465

CYP1A1 #1
- log2 vehicle/camptothecin viability: -0.51

CYP1A1 #2
- log2 vehicle/camptothecin viability: -0.216

CYP1A1 #3
- log2 vehicle/camptothecin viability: 0.353

CYP1A1 #4
- log2 vehicle/camptothecin viability: -0.221

FGF8 #1
- log2 vehicle/camptothecin viability: -0.317

FGF8 #2
- log2 vehicle/camptothecin viability: 0.285

FGF8 #3
- log2 vehicle/camptothecin viability: 0.156

FGF8 #4
- log2 vehicle/camptothecin viability: -0.566

FGF8 #5
- log2 vehicle/camptothecin viability: -0.597

FGF8 #6
- log2 vehicle/camptothecin viability: -0.0674

RNF24 #1
- log2 vehicle/camptothecin viability: -0.351

RNF24 #2
- log2 vehicle/camptothecin viability: -0.175

RNF24 #3
- log2 vehicle/camptothecin viability: -0.278

RNF24 #4
- log2 vehicle/camptothecin viability: -0.336

TRIP10 #1
- log2 vehicle/camptothecin viability: -0.0742

TRIP10 #2
- log2 vehicle/camptothecin viability: 0.824

TRIP10 #3
- log2 vehicle/camptothecin viability: -0.294

TRIP10 #4
- log2 vehicle/camptothecin viability: -0.356

RRM2 #1
- log2 vehicle/camptothecin viability: 1.91

RRM2 #2
- log2 vehicle/camptothecin viability: 0.0915

RRM2 #3
- log2 vehicle/camptothecin viability: -0.327

RRM2 #4
- log2 vehicle/camptothecin viability: 0.0375

ALKBH3 #1
- log2 vehicle/camptothecin viability: -0.507

ALKBH3 #2
- log2 vehicle/camptothecin viability: -0.125

ALKBH3 #3
- log2 vehicle/camptothecin viability: -0.0869

ALKBH3 #4
- log2 vehicle/camptothecin viability: -0.539

RAB40C #1
- log2 vehicle/camptothecin viability: -0.446

RAB40C #2
- log2 vehicle/camptothecin viability: 0.0283

RAB40C #3
- log2 vehicle/camptothecin viability: 0.754

RAB40C #4
- log2 vehicle/camptothecin viability: -0.415

CCR6 #1
- log2 vehicle/camptothecin viability: -0.252

CCR6 #2
- log2 vehicle/camptothecin viability: 0.0401

CCR6 #3
- log2 vehicle/camptothecin viability: 0.551

CCR6 #4
- log2 vehicle/camptothecin viability: 0.217

Looked up above.
TRIP10 #1, log2 vehicle/camptothecin viability = -0.0742
Result for GHRH #4 in “log2 vehicle/camptothecin viability”: -0.0465
